In publication PMC4444253 one finds binding data, which are given here for four molecules.

Amino acid sequences for entries named in this document (tags omitted). A change or cut given only in a name is not applied to a line headed by its entry.
UniProt P50591: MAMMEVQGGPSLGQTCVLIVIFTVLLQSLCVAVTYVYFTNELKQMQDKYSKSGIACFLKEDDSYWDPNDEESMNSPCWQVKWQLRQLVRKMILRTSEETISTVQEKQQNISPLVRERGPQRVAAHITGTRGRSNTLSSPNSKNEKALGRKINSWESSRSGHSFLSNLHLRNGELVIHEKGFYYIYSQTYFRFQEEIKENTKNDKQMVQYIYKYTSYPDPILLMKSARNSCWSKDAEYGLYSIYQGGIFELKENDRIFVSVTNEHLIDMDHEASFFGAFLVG
UniProt Q13158: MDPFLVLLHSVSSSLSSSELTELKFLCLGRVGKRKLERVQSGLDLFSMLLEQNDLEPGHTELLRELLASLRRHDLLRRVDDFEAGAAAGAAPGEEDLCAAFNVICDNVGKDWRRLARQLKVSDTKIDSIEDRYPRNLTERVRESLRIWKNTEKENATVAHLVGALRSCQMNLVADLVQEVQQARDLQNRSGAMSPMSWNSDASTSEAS
UniProt Q14790: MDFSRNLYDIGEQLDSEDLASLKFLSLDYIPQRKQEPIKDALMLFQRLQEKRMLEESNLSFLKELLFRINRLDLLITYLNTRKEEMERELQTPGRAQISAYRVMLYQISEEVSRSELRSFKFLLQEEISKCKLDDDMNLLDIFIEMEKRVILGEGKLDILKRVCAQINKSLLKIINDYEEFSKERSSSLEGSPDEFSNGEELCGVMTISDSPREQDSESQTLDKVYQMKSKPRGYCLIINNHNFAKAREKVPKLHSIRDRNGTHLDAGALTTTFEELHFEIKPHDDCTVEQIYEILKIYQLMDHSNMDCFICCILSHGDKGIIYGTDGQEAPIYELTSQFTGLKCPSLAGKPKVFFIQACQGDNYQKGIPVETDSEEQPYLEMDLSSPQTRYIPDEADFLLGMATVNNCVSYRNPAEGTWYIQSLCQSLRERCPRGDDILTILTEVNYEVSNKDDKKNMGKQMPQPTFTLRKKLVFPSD
UniProt P15311: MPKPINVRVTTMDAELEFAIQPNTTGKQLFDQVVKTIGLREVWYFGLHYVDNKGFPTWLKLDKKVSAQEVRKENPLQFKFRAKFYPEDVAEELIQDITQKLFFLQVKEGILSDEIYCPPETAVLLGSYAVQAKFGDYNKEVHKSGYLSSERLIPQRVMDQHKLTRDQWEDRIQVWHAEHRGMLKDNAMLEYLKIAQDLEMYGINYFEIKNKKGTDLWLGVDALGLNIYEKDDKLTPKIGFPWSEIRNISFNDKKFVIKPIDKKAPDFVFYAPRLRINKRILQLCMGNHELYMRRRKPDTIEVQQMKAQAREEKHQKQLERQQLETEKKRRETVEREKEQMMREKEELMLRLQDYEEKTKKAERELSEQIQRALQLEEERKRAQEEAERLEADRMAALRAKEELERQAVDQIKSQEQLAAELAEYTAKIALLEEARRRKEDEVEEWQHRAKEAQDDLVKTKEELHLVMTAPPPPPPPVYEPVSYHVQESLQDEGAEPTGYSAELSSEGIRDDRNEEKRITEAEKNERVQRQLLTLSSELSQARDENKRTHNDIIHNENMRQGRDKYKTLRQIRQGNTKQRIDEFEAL

Results are given in words; binding and its absence hold for the method and conditions named. In cells and extracts the contact can be indirect. A result given as binding can be weak or reduced; the word gives no strength.

The labels stand for the following.
B1: caspase-10 (enzyme, UniProt Q92851 1-521)
chain: MKSQGQHWYSSSDKNCKVSFREKLLIIDSNLGVQDVENLKFLCIGLVPNKKLEKSSSASDVFEHLLAEDLLSEEDPFFLAELLYIIRQKKLLQHLNCTKEEVERLLPTRQRVSLFRNLLYELSEGIDSENLKDMIFLLKDSLPKTEMTSLSFLAFLEKQGKIDEDNLTCLEDLCKTVVPKLLRNIEKYKREKAIQIVTPPVDKEAESYQGEEELVSQTDVKTFLEALPQESWQNKHAGSNGNRATNGAPSLVSRGMQGASANTLNSETSTKRAAVYRMNRNHRGLCVIVNNHSFTSLKDRQGTHKDAEILSHVFQWLGFTVHIHNNVTKVEMEMVLQKQKCNPAHADGDCFVFCILTHGRFGAVYSSDEALIPIREIMSHFTALQCPRLAEKPKLFFIQACQGEEIQPSVSIEADALNPEQAPTSLQDSIPAEADFLLGLATVPGYVSFRHVEEGSWYIQSLCNHLKKLVPRMLKFLEKTMEIRGRKRTVWGAKQISATSLPTAISAQTPRPPMRRWSSVS

The target in this test is Flag-tagged recombinant soluble human TRAIL (human) (UniProt P50591). Nature of the test: co-IP; TRAIL DISC analysis: 10^8 HCT116 or SW480 cells stimulated at 37°C with Flag-TRAIL cross-linked with anti-Flag M2, lysed in 1% NP40, 20 mM Tris-HCl pH 7.5, 150 mM NaCl, 10% glycerol; precipitated overnight at 4°C with protein G-Sepharose; western blot; also done in SW480 cells expressing ezrin WT, S66A or S66D; only the target purified.
Consider “adaptor protein FADD (from UniProt Q13158 1-208)”, for which the binding entry is recorded as “binds”. For the molecule “caspase-8 (from UniProt Q14790 1-479) (enzyme)”, the binding result was “binds”.

In the case of ezrin (from UniProt P15311 1-586), the binding result was “no binding”. Next, B1: “binds”.
